Measured values published in article PMC10687025.
No constants are given. Whether binding was seen depends on the method and setting. Binding seen in cells or lysates may run through a third protein. Some entries that bind do so weakly or less than the wild type. Sequences can lack the tags named with a protein. Blank lines part the entries; values can stand above or below the binder they belong to.

Key:
CHMP6 = target: T1, CHMP6 (UniProt Q96FZ7); test: co-IP; Supplemental Fig. 16; as for CHMP2A (Fig. 8b, c), details not shown
T1 sequence: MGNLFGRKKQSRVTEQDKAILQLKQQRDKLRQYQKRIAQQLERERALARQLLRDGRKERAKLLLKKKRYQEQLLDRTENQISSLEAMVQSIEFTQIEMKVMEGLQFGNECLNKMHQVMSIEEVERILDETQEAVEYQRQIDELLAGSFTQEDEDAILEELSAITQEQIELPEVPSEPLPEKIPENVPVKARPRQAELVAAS

GFP-CHMP2A = target: T2, GFP-CHMP2A (UniProt O43633); test: co-IP; transfected HeLa cells treated with 1 mM DSP cross-linker, quenched with Tris-HCl, lysed, GFP-Trap; blots with anti-Myc and anti-GFP; also in Arl4A-knockdown cells (Fig. 8c)
T2 sequence: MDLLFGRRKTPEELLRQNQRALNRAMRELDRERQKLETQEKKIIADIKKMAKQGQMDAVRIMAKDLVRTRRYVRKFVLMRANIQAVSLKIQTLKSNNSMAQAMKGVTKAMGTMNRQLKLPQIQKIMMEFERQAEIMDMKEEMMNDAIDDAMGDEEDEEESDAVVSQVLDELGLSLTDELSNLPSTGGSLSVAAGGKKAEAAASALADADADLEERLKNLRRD

AMSH-HA = target: T3, AMSH-HA (UniProt O95630); test: co-IP; lysates of transfected 293T cells, HA beads; blots with anti-HA, anti-mCherry and anti-Arl4A; with and without Arl4A overexpression
T3 sequence: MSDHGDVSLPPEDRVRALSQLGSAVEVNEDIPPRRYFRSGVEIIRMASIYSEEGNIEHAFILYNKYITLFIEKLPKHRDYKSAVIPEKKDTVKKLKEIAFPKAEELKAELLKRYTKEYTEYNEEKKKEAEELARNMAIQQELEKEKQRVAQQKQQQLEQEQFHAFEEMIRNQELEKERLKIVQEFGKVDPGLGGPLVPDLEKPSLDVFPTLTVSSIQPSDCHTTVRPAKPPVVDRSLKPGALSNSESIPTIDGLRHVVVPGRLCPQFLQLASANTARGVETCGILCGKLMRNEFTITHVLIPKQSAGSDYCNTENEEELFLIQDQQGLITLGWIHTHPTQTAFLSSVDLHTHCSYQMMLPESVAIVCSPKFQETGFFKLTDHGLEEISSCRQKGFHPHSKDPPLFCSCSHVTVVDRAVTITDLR

USP8-HA = target: T4, USP8-HA (UniProt P40818); test: as above
T4 sequence: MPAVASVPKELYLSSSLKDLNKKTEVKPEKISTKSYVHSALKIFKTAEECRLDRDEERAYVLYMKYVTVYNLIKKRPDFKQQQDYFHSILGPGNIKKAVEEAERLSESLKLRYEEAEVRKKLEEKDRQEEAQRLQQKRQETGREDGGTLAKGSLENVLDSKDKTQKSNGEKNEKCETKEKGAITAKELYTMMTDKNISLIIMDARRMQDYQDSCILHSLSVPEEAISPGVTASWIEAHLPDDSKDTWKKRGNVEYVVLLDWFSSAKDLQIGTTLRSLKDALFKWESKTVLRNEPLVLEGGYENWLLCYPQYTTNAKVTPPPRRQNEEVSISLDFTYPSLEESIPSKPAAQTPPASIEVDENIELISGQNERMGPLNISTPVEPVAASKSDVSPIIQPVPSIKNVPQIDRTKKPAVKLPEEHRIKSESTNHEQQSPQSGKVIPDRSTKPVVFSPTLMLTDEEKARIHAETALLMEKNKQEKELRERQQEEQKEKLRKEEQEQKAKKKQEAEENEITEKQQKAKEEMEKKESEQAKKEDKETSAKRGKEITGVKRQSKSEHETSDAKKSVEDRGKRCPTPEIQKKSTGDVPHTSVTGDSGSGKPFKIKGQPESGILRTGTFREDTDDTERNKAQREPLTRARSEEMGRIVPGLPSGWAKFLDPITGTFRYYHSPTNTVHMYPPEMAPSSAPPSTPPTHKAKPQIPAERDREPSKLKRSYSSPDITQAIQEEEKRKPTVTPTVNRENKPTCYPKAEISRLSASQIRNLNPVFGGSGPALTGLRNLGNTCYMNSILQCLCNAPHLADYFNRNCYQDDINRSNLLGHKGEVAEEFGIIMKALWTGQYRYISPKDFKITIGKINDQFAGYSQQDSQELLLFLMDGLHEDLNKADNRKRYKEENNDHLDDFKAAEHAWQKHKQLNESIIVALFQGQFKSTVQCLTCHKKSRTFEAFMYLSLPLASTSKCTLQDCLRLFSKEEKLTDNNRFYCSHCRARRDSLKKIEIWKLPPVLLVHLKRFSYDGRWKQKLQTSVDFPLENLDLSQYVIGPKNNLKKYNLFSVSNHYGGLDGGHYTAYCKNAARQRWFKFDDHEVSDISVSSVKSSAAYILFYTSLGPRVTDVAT

[1] = target: T5, VPS36 precipitated with HA beads (Fig. 4c) (UniProt Q86VN1); test: co-IP; lysates of transfected HeLa cells, HA beads; blots with anti-HA and anti-Arl4A
T5 sequence: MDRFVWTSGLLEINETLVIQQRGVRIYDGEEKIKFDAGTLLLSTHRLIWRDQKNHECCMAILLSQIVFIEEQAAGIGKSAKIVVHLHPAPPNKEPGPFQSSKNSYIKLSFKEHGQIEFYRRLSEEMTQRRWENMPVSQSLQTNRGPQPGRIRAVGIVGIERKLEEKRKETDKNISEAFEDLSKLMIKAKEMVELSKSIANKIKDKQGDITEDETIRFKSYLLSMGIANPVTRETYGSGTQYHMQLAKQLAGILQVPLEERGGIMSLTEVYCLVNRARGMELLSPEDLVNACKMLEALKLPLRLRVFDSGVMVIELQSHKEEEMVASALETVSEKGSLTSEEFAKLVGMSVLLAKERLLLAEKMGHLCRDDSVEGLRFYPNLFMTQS

VPS36-WT-Myc = target: T6, VPS36-WT-Myc (UniProt Q86VN1); test: co-IP; lysates of transfected HeLa cells, Myc-Trap beads; blots with anti-Myc and anti-Arl4A; with and without EGF treatment (Fig. 5c)
T6 sequence: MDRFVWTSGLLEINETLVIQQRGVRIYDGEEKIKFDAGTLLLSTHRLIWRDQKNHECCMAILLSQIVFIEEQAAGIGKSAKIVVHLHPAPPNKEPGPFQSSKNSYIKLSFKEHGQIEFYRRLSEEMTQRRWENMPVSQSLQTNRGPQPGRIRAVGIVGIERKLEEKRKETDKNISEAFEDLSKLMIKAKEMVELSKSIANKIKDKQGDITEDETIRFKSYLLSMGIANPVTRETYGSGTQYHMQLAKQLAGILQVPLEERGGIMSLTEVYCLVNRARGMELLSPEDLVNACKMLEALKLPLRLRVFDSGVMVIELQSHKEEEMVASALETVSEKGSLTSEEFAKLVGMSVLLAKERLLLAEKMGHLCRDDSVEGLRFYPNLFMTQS

B1: VPS36-WT-Myc (protein, UniProt Q86VN1 1-386)
chain: MDRFVWTSGLLEINETLVIQQRGVRIYDGEEKIKFDAGTLLLSTHRLIWRDQKNHECCMAILLSQIVFIEEQAAGIGKSAKIVVHLHPAPPNKEPGPFQSSKNSYIKLSFKEHGQIEFYRRLSEEMTQRRWENMPVSQSLQTNRGPQPGRIRAVGIVGIERKLEEKRKETDKNISEAFEDLSKLMIKAKEMVELSKSIANKIKDKQGDITEDETIRFKSYLLSMGIANPVTRETYGSGTQYHMQLAKQLAGILQVPLEERGGIMSLTEVYCLVNRARGMELLSPEDLVNACKMLEALKLPLRLRVFDSGVMVIELQSHKEEEMVASALETVSEKGSLTSEEFAKLVGMSVLLAKERLLLAEKMGHLCRDDSVEGLRFYPNLFMTQS
binding (CHMP6): binds | binding (GFP-CHMP2A): binds

B2: CHMP2A-mCherry (protein, UniProt O43633 1-222)
chain: MDLLFGRRKTPEELLRQNQRALNRAMRELDRERQKLETQEKKIIADIKKMAKQGQMDAVRIMAKDLVRTRRYVRKFVLMRANIQAVSLKIQTLKSNNSMAQAMKGVTKAMGTMNRQLKLPQIQKIMMEFERQAEIMDMKEEMMNDAIDDAMGDEEDEEESDAVVSQVLDELGLSLTDELSNLPSTGGSLSVAAGGKKAEAAASALADADADLEERLKNLRRD
binding (AMSH-HA): binds | binding (USP8-HA): binds

B3: untagged Arl4A Q79L (pSG5) (protein, UniProt P40617 1-200)
chain: MGNGLSDQTSILSNLPSFQSFHIVILGLDCAGKTTVLYRLQFNEFVNTVPTKGFNTEKIKVTLGNSKTVTFHFWDVGGLEKLRPLWKSYTRCTDGIVFVVDSVDVERMEEAKTELHKITRISENQGVPVLIVANKQDLRNSLSLSEIEKLLAMGELSSSTPWHLQPTCAIIGDGLKEGLEKLHDMIIKRRKMLRQQKKKR
binding [1]: binds

The next lines start with the values.

binding [1]: binds
B4: untagged Arl4A T51N (pSG5) (protein, UniProt P40617 1-200)
chain: MGNGLSDQTSILSNLPSFQSFHIVILGLDCAGKTTVLYRLQFNEFVNTVPNKGFNTEKIKVTLGNSKTVTFHFWDVGGQEKLRPLWKSYTRCTDGIVFVVDSVDVERMEEAKTELHKITRISENQGVPVLIVANKQDLRNSLSLSEIEKLLAMGELSSSTPWHLQPTCAIIGDGLKEGLEKLHDMIIKRRKMLRQQKKKR

binding [1]: binds | binding (VPS36-WT-Myc): binds
B5: untagged Arl4A WT (pSG5) (protein, UniProt P40617 1-200)
chain: MGNGLSDQTSILSNLPSFQSFHIVILGLDCAGKTTVLYRLQFNEFVNTVPTKGFNTEKIKVTLGNSKTVTFHFWDVGGQEKLRPLWKSYTRCTDGIVFVVDSVDVERMEEAKTELHKITRISENQGVPVLIVANKQDLRNSLSLSEIEKLLAMGELSSSTPWHLQPTCAIIGDGLKEGLEKLHDMIIKRRKMLRQQKKKR
